No constants are given. Whether binding was seen depends on the method and setting. For some of these results: In cells and extracts the contact can be indirect. Some entries that bind do so weakly or less than the wild type. For some of these results: Where a sequence is shown, tags or fusion partners need not be part of it.
Tests used:
[1] = target: Hnea CsoS2 (yeast two-hybrid fusion) (Halothiobacillus neapolitanus) (UniProt O85041); experiment: two-hybrid; Matchmaker GAL4 Two-Hybrid System 3, S. cerevisiae AH109; baits in pGBKT7, preys in pGADT7; MEL1 reporter (X-α-Gal) and growth without histidine with 10 mM 3-AT
[2] = target: T1, Hnea RuBisCO small subunit CbbS (yeast two-hybrid fusion) (Halothiobacillus neapolitanus) (UniProt P45686); experiment: as above
T1 sequence: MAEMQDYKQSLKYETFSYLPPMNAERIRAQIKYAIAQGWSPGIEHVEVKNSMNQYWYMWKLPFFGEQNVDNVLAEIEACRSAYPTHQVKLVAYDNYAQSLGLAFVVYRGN

By UniProt entry, the sequences of proteins in these tests, tags left out. Where a name states a change or a piece, a line headed by the entry shows the natural chain unless it says otherwise.
UniProt O85040: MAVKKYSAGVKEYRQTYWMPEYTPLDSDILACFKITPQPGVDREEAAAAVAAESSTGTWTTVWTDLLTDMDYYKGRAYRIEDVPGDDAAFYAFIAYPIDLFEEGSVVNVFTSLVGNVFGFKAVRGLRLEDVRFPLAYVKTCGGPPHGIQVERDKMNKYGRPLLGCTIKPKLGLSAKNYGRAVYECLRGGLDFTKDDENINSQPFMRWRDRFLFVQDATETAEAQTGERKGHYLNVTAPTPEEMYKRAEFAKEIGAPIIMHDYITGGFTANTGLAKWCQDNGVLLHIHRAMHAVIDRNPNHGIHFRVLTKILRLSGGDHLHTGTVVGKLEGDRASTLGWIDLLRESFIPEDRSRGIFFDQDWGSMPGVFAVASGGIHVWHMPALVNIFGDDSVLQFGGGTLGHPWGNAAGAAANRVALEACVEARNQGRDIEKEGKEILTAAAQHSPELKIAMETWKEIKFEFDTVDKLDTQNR

[3] = target: T2, Hnea CsoS4B (yeast two-hybrid fusion) (Halothiobacillus neapolitanus) (UniProt O85044); experiment: as above
T2 sequence: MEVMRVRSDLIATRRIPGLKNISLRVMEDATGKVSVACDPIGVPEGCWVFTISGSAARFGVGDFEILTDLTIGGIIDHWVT

[4] = target: T3, Hnea CsoS1C (yeast two-hybrid fusion) (Halothiobacillus neapolitanus) (UniProt P45688); experiment: as above
T3 sequence: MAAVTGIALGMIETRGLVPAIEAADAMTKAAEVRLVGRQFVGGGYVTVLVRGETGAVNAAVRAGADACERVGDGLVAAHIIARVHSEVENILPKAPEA

[5] = target: SPA-tagged Hnea CsoS2B (full length CsoS2 with C-terminal SPA tag, in HnSPAS2 mutant carboxysomes) (Halothiobacillus neapolitanus) (UniProt O85041); experiment: co-IP; purified HnSPAS2 mutant carboxysomes bound to agarose beads conjugated with α-FLAG antibodies, eluted with 100 mM glycine buffer, pH 2.5; eluate analysed by SDS-PAGE and densitometry; the trapped carboxysomes were taken to be intact
[6] = target: T4, SPA-tagged Hnea CsoS2B (full length CsoS2 with C-terminal SPA tag, in HnSPAS2 mutant carboxysomes) (Halothiobacillus neapolitanus), O85041; experiment: as above; settings: remark: other sources report otherwise
T4 chain: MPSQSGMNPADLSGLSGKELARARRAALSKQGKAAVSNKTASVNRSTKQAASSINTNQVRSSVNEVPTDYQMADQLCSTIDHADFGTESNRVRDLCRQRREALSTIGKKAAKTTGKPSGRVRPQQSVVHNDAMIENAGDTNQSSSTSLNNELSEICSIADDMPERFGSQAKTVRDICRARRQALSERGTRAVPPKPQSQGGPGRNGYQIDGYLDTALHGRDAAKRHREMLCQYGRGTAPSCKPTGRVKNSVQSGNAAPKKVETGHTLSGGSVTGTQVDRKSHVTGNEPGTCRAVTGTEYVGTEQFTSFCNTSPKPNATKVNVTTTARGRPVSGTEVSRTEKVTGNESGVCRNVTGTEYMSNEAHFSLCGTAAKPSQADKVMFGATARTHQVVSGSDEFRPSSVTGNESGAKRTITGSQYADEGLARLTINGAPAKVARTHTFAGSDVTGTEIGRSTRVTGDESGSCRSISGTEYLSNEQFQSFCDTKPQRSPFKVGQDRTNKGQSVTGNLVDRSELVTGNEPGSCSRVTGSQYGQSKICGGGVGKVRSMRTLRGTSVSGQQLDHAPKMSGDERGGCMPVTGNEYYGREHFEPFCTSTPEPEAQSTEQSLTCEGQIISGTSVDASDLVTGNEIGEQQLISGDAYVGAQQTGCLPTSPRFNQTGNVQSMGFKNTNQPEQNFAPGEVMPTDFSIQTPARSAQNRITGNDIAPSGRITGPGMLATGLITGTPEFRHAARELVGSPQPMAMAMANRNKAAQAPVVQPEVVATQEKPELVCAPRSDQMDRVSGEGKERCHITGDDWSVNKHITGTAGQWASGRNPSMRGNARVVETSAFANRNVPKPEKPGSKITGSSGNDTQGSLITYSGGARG

Hnea CsoS2 (yeast two-hybrid fusion) (from UniProt O85041 1-869)
binding [1]: binds | binding [2]: binds | binding [3]: binds | binding [4]: binds

Hnea RuBisCO (L8S8 holoenzyme) (from UniProt O85040 1-473; P45686 1-110) (complex)
binding [5]: binds

B1: Hnea CsoSCA (carboxysomal carbonic anhydrase, product of csoS3), O85042 1-514 (enzyme)
chain: MNTRNTRSKQRAPFGVSSSVKPRLDLIEQAPNPAYDRHPACITLPERTCRHPLTDLEANEQLGRCEDSVKNRFDRVIPFLQVVAGIPLGLDYVTRVQELAQSSLGHTLPEELLKDNWISGHNLKGIFGYATAKALTAATEQFSRKIMSEKDDSASAIGFFLDCGFHAVDISPCADGRLKGLLPYILRLPLTAFTYRKAYAGSMFDIEDDLAQWEKNELRRYREGVPNTADQPTRYLKIAVYHFSTSDPTHSGCAAHGSNDRAALEAALTQLMKFREAVENAHCCGASIDILLIGVDTDTDAIRVHIPDSKGFLNPYRYVDNTVTYAQTLHLAPDEARVIIHEAILNANRSDGWAKGNGVASEGMRRFIGQLLINNLSQIDYVVNRHGGRYPPNDIGHAERYISVGDGFDEVQIRNLAYYAHLDTVEENAIDVDVGIKIFTKLNLSRGLPIPIAIHYRYDPNVPGSRERTVVKARRIYNAIKERFSSLDEQNLLQFRLSVQAQDIGSPIEEVASA
binding [6]: binds

B2: Hnea CsoS1B (protein, UniProt P45690 1-110)
chain: MATTHGIALGMIETRGLVPAIEAADAMTKAAEVRLVGRSFVGGGYVTVMVRGETGAVNAAVRAGADACERVGDGLVAAHIIARVHSEVEIILPETPEDSDSAWCIANLNS
binding [5]: binds

— paper PMC4499774
